Assay results as given in paper PMC8523568.
No constants are given. Whether binding was seen depends on the method and setting. Binding seen in cells or lysates may run through a third protein. Some binding calls cover weakened binding; strength is not graded here. Tags and fused reporters may be left off the sequences shown.

By UniProt entry, the sequences of proteins in these tests, tags left out. Residues count along the entry.
UniProt P11021, residues 19-654: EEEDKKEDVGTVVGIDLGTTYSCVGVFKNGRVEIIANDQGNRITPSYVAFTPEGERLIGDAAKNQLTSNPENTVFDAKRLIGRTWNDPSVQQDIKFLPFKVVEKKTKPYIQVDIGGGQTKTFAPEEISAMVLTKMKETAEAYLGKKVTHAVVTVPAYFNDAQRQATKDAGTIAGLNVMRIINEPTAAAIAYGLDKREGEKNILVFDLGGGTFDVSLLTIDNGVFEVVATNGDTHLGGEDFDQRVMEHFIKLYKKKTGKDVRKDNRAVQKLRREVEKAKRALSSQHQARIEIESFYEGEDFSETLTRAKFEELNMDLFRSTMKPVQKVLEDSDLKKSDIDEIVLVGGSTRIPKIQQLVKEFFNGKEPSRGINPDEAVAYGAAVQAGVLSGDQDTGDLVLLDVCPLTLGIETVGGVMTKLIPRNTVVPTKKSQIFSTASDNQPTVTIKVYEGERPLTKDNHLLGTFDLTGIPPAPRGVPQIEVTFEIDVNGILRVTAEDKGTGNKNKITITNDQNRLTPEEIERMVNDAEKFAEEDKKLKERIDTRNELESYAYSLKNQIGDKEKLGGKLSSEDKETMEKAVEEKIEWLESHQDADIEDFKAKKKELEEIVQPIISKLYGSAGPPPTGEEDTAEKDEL

Biological target: T1, human CaSR with FLAG-tag (FLAG-hCaSR) (human) (UniProt P41180)
T1 sequence: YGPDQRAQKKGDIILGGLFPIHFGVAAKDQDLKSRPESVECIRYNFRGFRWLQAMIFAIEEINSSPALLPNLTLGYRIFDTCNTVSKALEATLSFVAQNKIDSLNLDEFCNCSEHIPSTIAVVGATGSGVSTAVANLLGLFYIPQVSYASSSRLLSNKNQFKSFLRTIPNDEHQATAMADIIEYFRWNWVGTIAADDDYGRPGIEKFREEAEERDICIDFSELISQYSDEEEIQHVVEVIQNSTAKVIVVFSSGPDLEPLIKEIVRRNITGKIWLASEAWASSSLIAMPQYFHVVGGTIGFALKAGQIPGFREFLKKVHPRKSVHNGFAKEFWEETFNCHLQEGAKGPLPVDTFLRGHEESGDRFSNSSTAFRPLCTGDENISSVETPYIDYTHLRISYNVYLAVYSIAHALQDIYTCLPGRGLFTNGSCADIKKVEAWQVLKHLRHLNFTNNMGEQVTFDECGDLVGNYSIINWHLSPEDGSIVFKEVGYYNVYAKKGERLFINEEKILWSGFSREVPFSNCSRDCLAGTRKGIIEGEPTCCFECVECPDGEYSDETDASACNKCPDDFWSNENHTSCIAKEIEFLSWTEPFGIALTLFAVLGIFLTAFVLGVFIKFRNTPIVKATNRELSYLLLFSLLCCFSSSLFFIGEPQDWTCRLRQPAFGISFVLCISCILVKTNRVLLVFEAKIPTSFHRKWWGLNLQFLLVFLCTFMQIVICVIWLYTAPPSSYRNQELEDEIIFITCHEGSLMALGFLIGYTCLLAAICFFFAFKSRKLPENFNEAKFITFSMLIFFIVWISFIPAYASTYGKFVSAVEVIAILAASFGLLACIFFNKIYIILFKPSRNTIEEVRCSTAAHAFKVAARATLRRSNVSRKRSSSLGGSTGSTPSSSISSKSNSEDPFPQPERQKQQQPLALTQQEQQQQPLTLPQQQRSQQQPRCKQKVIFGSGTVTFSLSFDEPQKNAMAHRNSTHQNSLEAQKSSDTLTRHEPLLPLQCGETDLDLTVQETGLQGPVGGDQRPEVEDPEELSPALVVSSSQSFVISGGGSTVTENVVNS
Assay: co-IP; anti-FLAG IP from total extracts of HEK293 cells transfected with FLAG-CaSR and VAPA or GRP78, cells treated with 4 mM Ca2+ or 2 mM EGTA; 100% of the beads used for western blot with anti-VAPA or anti-GRP78; triplicates

- binding: binds
Substance: GRP78, transfected (from UniProt P11021 19-654)
